Results taken from doi:10.64898/2025.12.08.692925.
No constants are given. Whether binding was seen depends on the method and setting. Binding seen in cells or lysates may run through a third protein. Binding calls can cover weak binding; strength is not graded here. Where a sequence is shown, tags or fusion partners need not be part of it.

Columns and labels:
[1] = molecular target: T1, Tim23 fused to short YFP (S. cerevisiae) (UniProt P32897); assay: split reporter
T1 sequence: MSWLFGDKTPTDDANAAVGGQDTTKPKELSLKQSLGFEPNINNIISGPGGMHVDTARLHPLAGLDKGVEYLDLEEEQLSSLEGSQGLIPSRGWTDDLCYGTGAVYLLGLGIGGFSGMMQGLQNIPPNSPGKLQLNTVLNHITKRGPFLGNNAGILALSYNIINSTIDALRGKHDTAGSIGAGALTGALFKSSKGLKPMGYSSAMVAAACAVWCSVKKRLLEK

[2] = molecular target: Tim23 mutant M3 fused to short YFP (S. cerevisiae) (UniProt P32897); assay: split reporter

| Molecule | binding [1] | binding [2] |
| --- | --- | --- |
| Sfc1 mutant M4 fused to long YFP (from UniProt P33303) | binds |  |
| Sfc1 mutant M2 fused to long YFP (from UniProt P33303) | binds |  |
| Sfc1 mutant M5 fused to long YFP (from UniProt P33303) | binds |  |
| Sfc1 fused to long YFP (protein, UniProt P33303 1-322) MSQKKKASHPAINLMAGGTAGLFEALCCHPLDTIKVRMQIYRRVAGIEHVKPPGFIKTGRTIYQKEGFLALYKGLGAVVIGIIPKMAIRFSSYEFYRTLLVNKESGIVSTGNTFVAGVGAGITEAVLVVNPMEVVKIRLQAQHLTPSEPNAGPKYNNAIHAAYTIVKEEGVSALYRGVSLTAARQATNQGANFTVYSKLKEFLQNYHQMDVLPSWETSCIGLISGAIGPFSNAPLDTIKTRLQKDKSISLEKQSGMKKIITIGAQLLKEEGFRALYKGITPRVMRVAPGQAVTFTVYEYVREHLENLGIFKKNDTPKPKPLK |  | binds |
